Results are given in words; binding and its absence hold for the method and conditions named. Some results given as binding are weak or reduced against the parent protein; the word gives no strength.
Key:
[1] = target: recombinant soluble extracellular domain (ECD) of PD-1 (R&D Systems) (UniProt Q15116); experiment: ELISA, ECD coated on the plate, range of antibody concentrations
[2] = target: recombinant soluble extracellular domain (ECD) of PD-1 (R&D Systems) (UniProt Q15116); experiment: ELISA, ECD coated on the plate (figure legend)
[3] = target: recombinant soluble extracellular domain (ECD) of PD-1 (R&D Systems) (UniProt Q15116); experiment: ELISA, PD-1 ECD coated on the plate, antibody titrated from about 0.003 to about 13 nM, OD 450 nm

By UniProt entry, the sequences of proteins in these tests, tags left out. Residues count along the entry.
UniProt Q15116, residues 25-170: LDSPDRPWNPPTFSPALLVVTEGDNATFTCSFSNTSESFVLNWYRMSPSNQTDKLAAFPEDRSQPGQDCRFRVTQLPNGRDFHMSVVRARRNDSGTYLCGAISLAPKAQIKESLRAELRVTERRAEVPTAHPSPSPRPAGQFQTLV

Measured: binding

B1: 100388_D4VH3_100389_D4VK5 (antibody, V domains shown)
VH: EVQLQESGAELVRPGASVTLSCKASGYTFTDYEMHWVKQTPVHGLEWIGVIDPGTGGTAYNQKFKVKALLTADKSSNTAYMELRSLTSEDSAVYYCTSEKFGSNYYFDYWGQGTTLTVSS
VL: DIVITQTPLSLPVSLGDQASISCRSSQTIVHSDGNTYLEWYLQKPGQSPKLLIYKVSNRFSGVPDRFSGSGSGTDFTLKISRVEAEDLGVYYCFQGSHVPLTFGAGTKLEIK
notes: Mouse variable regions; cloned into pFUSE-CHIg-mG1 (murine IgG1 Fc), expressed in HEK293
binds: all assays above

B2: 100413_E1VH9_100414_E1VK5 (antibody, V domains shown)
VH: EVQLQESGPSLVQPSQSLSITCTVSGFSLTSYGVHWVRQSPGKGLEWLGVIWRGGNTDYNAAFMSRLSITKDNSKSQVFFKMNSLQADDTAIYYCAASMIGGYWGQGTTLTVSS
VL: DIVLTQTPLSLPVSLGDQASISCRSSQSIVHSNGNTYLEWYLQKPGQSPKLLIYKVSNRFSGVPDRFSGSGSGTNFTLKISRVEAEDLGVYYCFQGSHVPLTFGAGTKLELK
notes: as for B1
binds: all assays above

B3: 100244_C8VH3_100245_C8VK5 (antibody, V domains shown)
VH: EVQLQESGPELVRPGASVKMSCKASGYTFTSYWMHWVKQRPGQGLEWIGMIDPSNSETSLNQKFKDKATLNVDKSTNTAYMQLSSLTSEDSAVYYCARSRGNYAYEMDYWGQGTSVTVSS
VL: DIVITQTTAIMSASPGEKVTLTCSASSSVSSNYLYWYQQRPGSSPKLWIYSTSNLASGVPARFSGSGSGTSYSLTISSMEAEDAASYFCHQWSSYPPTFGSGTKLEIK
notes: as for B1
binds: all assays above

B4: 100246_A10VH1_100247_A10VK3 (antibody, V domains shown)
VH: EVQLQESGPGLVKPSQSLSLTCTVTGYSITSDYAWNWIRQFPGNKLEWMGYITYSGSPTYNPSLKSQFSITRDTSKNQFFLQLNSLTTEDTATYYCARGLGGHYFDYWGQGTTLTVSS
VL: DIVLTQSPDTLSVTPGDRVSLSCRASQSISDYLHWYQQKSHESPRLLIKYASQSISGIPSRFSGSGSGSDFTLSINSVEPEDVGVYYCQNGHSYPYTFGGGTKLELK
notes: as for B1
binds: all assays above

Reference: patent publication US20160251436A1 (PD 1 ACQUISITION GROUP, published 2016)
